The supplement of paper PMC10849652
This is one part of the list.

The chains behind the UniProt entries cited, without tags or fusion partners. Where a name states a change or a piece, a line headed by the entry shows the natural chain unless it says otherwise.
UniProt Q96I99: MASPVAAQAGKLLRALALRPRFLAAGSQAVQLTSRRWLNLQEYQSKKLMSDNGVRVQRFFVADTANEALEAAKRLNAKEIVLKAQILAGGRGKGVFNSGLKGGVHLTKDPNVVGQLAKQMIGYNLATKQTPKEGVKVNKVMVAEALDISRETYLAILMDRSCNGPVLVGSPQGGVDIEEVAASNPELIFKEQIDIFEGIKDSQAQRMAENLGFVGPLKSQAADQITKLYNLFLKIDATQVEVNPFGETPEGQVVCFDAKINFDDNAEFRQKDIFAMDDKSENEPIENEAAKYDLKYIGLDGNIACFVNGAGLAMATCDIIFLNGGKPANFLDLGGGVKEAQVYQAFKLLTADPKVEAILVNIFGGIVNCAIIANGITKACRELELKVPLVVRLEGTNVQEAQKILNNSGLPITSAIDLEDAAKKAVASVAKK
UniProt Q9UJZ1: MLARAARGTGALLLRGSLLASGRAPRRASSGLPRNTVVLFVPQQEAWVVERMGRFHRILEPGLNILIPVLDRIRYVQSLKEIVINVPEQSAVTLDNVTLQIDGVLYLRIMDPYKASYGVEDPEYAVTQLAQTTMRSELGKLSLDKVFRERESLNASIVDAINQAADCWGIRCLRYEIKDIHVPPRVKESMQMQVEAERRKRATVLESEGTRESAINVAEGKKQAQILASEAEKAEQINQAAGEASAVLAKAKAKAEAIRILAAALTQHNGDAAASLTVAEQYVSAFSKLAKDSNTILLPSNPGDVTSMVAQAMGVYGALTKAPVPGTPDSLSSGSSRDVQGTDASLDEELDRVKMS
UniProt Q17R31: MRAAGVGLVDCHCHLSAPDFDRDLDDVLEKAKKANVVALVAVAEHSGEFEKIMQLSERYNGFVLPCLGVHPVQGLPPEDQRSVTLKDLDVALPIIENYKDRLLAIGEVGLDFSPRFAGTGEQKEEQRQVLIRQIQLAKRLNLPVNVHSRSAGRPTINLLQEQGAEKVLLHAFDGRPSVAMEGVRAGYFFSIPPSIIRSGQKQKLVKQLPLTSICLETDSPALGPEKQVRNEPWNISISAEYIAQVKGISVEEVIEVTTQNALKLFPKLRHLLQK
UniProt O43760: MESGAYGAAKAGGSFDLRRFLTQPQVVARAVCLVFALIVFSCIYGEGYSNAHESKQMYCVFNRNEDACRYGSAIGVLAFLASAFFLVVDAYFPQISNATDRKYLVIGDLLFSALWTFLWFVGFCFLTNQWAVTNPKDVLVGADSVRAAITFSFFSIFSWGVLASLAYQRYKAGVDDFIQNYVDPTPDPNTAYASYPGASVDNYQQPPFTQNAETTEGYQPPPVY
UniProt O75410: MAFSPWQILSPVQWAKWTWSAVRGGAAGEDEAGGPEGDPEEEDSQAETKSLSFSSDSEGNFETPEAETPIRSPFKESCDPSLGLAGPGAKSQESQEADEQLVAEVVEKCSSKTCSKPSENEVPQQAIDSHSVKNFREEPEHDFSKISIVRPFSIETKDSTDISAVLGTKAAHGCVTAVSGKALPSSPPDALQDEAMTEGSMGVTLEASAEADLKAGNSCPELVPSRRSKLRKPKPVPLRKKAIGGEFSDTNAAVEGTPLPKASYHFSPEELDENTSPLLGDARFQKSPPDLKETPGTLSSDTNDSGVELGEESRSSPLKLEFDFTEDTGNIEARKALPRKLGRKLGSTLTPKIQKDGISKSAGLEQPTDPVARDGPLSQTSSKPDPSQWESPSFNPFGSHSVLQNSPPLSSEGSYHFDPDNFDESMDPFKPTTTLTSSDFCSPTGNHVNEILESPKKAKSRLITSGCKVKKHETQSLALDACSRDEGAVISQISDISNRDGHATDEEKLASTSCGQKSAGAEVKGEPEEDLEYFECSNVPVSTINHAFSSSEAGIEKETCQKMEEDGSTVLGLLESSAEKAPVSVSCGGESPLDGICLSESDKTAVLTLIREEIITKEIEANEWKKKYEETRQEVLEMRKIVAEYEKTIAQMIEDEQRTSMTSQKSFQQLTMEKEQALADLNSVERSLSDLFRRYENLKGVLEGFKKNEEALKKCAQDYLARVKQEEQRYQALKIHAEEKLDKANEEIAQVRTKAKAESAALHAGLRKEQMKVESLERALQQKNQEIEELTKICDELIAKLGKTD
UniProt Q9UNK0: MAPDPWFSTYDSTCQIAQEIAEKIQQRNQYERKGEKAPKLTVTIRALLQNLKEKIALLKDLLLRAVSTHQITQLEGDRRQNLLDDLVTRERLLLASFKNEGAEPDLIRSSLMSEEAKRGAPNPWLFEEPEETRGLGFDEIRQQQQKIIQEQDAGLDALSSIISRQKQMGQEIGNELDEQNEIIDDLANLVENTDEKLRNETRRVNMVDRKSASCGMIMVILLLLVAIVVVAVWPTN
UniProt Q5T5C0: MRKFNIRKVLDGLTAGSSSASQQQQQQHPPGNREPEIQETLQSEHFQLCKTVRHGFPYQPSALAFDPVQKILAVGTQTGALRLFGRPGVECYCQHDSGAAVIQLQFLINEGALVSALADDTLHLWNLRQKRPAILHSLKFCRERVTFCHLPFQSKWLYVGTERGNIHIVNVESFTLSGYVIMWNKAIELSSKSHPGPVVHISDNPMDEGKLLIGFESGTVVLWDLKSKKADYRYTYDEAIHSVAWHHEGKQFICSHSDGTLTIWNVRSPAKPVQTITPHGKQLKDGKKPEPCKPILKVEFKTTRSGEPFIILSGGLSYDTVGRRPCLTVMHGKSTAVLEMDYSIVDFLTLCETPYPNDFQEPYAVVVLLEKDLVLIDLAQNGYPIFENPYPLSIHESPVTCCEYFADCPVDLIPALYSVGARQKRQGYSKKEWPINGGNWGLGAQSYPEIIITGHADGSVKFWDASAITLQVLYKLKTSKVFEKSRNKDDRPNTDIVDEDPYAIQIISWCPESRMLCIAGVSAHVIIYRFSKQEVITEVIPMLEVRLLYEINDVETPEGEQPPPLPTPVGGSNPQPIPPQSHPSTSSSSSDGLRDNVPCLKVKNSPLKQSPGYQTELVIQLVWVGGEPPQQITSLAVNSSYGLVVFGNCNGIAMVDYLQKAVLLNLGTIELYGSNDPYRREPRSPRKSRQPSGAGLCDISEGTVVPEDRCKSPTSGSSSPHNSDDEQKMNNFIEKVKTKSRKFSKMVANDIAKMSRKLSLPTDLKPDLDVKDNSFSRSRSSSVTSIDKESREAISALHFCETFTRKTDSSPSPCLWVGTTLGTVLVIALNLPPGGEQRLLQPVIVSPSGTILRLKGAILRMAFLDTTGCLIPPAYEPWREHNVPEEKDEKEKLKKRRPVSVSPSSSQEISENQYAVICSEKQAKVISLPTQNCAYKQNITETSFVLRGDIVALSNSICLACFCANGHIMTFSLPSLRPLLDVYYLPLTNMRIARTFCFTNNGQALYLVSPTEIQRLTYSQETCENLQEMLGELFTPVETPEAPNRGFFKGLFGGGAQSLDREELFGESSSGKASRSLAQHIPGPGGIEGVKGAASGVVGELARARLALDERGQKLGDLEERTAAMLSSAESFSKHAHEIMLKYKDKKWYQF
UniProt Q96SI9: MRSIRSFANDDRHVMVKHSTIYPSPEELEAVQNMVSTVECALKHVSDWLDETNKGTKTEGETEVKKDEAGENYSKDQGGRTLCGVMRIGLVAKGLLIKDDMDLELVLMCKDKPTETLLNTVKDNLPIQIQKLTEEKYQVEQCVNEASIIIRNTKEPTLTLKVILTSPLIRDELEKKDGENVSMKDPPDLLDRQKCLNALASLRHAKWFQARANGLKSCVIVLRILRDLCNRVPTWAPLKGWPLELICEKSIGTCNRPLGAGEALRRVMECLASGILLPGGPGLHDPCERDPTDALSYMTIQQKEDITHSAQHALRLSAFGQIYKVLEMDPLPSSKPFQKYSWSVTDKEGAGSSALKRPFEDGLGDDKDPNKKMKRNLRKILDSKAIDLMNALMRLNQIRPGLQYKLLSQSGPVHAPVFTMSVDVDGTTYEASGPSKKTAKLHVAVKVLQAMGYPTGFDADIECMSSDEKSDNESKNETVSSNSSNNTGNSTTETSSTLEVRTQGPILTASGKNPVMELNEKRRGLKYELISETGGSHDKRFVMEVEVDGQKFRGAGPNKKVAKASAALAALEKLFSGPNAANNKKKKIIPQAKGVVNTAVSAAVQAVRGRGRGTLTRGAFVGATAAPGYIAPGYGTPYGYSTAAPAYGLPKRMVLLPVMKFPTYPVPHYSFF
UniProt Q6P1N9: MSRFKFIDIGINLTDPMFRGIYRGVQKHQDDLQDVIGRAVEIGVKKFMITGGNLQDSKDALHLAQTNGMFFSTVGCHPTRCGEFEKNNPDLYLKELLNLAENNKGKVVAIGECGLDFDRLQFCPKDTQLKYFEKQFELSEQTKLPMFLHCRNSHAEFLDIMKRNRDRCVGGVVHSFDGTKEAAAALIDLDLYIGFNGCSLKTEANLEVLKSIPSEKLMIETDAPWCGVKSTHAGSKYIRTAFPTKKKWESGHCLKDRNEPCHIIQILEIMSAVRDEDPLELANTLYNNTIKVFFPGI
UniProt Q8NHG7: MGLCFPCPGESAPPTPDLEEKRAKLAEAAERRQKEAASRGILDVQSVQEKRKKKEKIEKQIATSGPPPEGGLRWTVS
UniProt Q9UH65: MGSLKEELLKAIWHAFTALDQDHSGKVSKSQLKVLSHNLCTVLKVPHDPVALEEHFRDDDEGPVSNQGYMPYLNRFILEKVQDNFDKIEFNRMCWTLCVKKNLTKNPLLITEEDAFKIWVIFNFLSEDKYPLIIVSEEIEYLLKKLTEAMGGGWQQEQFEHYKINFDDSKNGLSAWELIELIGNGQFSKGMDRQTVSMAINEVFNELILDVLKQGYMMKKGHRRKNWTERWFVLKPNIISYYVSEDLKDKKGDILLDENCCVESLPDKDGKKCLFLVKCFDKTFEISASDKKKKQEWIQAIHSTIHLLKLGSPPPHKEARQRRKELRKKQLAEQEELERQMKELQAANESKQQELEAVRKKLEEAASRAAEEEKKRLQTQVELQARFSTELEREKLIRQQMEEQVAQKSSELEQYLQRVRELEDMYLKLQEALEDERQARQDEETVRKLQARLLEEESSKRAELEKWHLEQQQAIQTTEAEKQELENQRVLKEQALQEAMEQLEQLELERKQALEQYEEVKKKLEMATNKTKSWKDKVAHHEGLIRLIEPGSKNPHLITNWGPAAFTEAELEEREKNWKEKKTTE
UniProt Q9Y3F4: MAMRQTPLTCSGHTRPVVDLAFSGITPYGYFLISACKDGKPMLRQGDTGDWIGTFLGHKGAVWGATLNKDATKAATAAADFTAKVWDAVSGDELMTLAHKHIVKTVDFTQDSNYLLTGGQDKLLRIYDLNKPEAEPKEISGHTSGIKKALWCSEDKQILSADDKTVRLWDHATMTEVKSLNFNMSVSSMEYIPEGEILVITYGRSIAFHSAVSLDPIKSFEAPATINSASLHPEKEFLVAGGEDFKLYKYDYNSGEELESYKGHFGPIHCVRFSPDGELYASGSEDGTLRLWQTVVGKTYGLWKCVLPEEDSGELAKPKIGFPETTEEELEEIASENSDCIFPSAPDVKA
UniProt Q15633: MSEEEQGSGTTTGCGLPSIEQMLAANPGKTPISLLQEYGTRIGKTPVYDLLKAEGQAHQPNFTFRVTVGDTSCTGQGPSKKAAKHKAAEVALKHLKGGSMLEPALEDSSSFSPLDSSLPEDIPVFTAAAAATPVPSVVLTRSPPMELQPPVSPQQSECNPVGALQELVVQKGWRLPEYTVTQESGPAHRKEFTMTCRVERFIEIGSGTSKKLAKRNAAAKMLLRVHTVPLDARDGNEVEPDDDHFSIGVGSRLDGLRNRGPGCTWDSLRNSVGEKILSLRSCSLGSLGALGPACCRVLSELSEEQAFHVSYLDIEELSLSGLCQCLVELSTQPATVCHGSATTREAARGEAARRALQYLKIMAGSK
UniProt Q12846: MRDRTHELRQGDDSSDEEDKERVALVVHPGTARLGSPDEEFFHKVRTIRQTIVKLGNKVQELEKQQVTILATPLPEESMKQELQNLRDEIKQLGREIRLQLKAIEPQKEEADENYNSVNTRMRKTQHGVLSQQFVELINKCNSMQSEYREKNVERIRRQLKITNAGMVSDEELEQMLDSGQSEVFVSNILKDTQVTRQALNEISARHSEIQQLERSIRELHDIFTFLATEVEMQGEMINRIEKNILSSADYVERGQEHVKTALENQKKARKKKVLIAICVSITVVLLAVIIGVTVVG
UniProt O95926: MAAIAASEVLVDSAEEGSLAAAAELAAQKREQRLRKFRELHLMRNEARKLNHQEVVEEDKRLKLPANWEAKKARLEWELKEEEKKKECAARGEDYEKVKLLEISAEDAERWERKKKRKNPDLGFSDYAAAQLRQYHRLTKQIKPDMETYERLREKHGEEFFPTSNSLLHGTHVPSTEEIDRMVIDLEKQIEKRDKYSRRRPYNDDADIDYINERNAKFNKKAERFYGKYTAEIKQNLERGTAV

What was measured:
Test in all cases: log2 fold change, soluble protein after heating vs DMSO (PISA); higher = thermal stabilisation; K562 cells, 10 uM, 30 min; active = over 0.2 and 3.5 SD of the protein, either way, in both replicates (recomputed)
[1] = compound: CC[C@@H]1C(=O)N(C)c2cnc(Nc3ccc(C(=O)NC4CCN(C)CC4)cc3OC)nc2N1C1CCCC1
How it was run: (§1)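 Values are thermal stability changes relative to control samples and are taken from duplicates. They are stated as log2 fold changes. Before quantification by TMTpro 16plex LC-MS/MS with equalised channel sums, K562 cells at 2×10^6 cells/mL were treated with 10 μM compound for 30 min, heated in aliquots for 3 min across 48°C-58°C, pooled, extracted in PBS with 0.5% NP-40 at 4°C, and centrifuged at 21,000xg for 90 min to give the soluble supernatant.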

[2] = compound: CC[C@@H]1C(=O)N(C)c2cnc(Nc3ccc(C(=O)N[C@H]4CC[C@H](N5CCN(CC6CC6)CC5)CC4)cc3OC)nc2N1C(C)C [volasertib]
How it was run: as §1

[3] = compound: CC[C@H](C)N1C=C(C2=C(C=C(C=C21)C3=CN=C(C=C3)N4CCNCC4)C(=O)NCC5=C(C=C(NC5=O)C)C)C
How it was run: as §1

[4] = compound: CC[C@H](C)[C@@H](C(=O)N[C@@H]([C@@H](C)O)C(=O)N[C@@H](CC(C)C)C(=O)[C@]1(CO1)C)NC(=O)[C@H]([C@@H](C)CC)N(C)C(=O)C [epoxomicin]
How it was run: as §1

[5] = compound: CCn1c(C(=O)N(C2CC2)C2CC2)cc2c3c(ncn3C)c(Nc3cc(C)n(C)n3)nc21
How it was run: as §1

[6] = compound: CCn1cc(-c2ccnc3[nH]c(-c4cccc(CN(C)C)c4)cc23)c(-c2ccc(NC(=O)N(C)C)cc2)n1
How it was run: as §1

[7] = compound: CN(C)CC(=O)Nc1ccc2[nH]c(=O)c3ccccc3c2c1
How it was run: as §1

[8] = compound: CN(CCOC1=CC=C(C=C1)C[C@H]2C(=O)NC(=O)S2)C3=CC=CC=N3 (racemic) [rosiglitazone]
How it was run: as §1

[9] = compound: CN1C2=C(C3=C1C(=O)N(N=C3)CC4=CC(=CC=C4)N)SC(=C2)S(=O)C
How it was run: as §1

[10] = compound: CN1CCC(CNc2ccc3ncc(-c4cccc(OC(F)(F)F)c4)n3n2)CC1
How it was run: as §1

[11] = compound: CN1CCN(CCOc2cc(OC3CCOCC3)c3c(Nc4c(Cl)ccc5c4OCO5)ncnc3c2)CC1 [saracatinib]
How it was run: as §1

[12] = compound: CN1CCN(c2nc(C3=C(c4c[nH]c5ccccc45)C(=O)NC3=O)c3ccccc3n2)CC1 [sotrastaurin]
How it was run: as §1

[13] = compound: CN1CC[C@H](c2c(O)cc(O)c3c(=O)cc(-c4ccccc4Cl)oc23)[C@H](O)C1 [alvocidib]
How it was run: as §1

[14] = compound: CN1CCc2c(c3ccccc3n2Cc2ccc(C(=O)NO)cc2)C1 [Tubastatin A]
How it was run: as §1

[15] = compound: CNC(=O)C1=CC=CC=C1NC2=NC(=NC=C2Cl)NC3=C(C=C(C=C3)N4CCOCC4)OC
How it was run: as §1

[16] = compound: CNC(=O)c1ccc(Nc2ncc(C(F)(F)F)c(NCc3nccnc3N(C)S(C)(=O)=O)n2)cc1 [defactinib]
How it was run: as §1

[17] = compound: CNCc1ccc(-c2[nH]c3cc(F)cc4c3c2CCNC4=O)cc1 [rucaparib]
How it was run: as §1

[18] = compound: CNc1nc(-c2ccc3c(N)n[nH]c3c2)cc(N2C[C@@H](C(=O)NC3CCCCC3)CC[C@H]2C)n1
How it was run: as §1

[19] = compound: COC(=O)N[C@@H](C)CNc1nccc(-c2cn(C(C)C)nc2-c2cc(Cl)cc(NS(C)(=O)=O)c2F)n1 [encorafenib]
How it was run: as §1

[20] = compound: COC(=O)[C@H](CCSC)NC(=O)C1=C(C=C(C=C1)NC[C@H](CS)N)C2=CC=CC=C2
How it was run: as §1

| Target | log2 fold change [1] | log2 fold change [2] | log2 fold change [3] | log2 fold change [4] | log2 fold change [5] | log2 fold change [6] | log2 fold change [7] | log2 fold change [8] | log2 fold change [9] | log2 fold change [10] | log2 fold change [11] | log2 fold change [12] | log2 fold change [13] | log2 fold change [14] | log2 fold change [15] | log2 fold change [16] | log2 fold change [17] | log2 fold change [18] | log2 fold change [19] | log2 fold change [20] |
| --- | --- | --- | --- | --- | --- | --- | --- | --- | --- | --- | --- | --- | --- | --- | --- | --- | --- | --- | --- | --- |
| TARS1 (UniProt P26639) | inactive: -0.009 | inactive: -0.042 | inactive: 0.045 | inactive: 0 | inactive: 0.008 | inactive: -0.094 | inactive: 0.012 | inactive: 0.041 | inactive: -0.043 | inactive: -0.098 | inactive: 0 | inactive: -0.006 | inactive: -0.067 | inactive: -0.028 | inactive: -0.005 | inactive: -0.032 | inactive: -0.003 | inactive: 0.052 | inactive: 0.023 | inactive: -0.008 |
| SUCLG2 (UniProt Q96I99) | inactive: -0.005 | inactive: -0.065 | inactive: 0.024 | inactive: 0.036 | inactive: 0.014 | inactive: -0.053 | inactive: 0.015 | inactive: 0.024 | inactive: -0.06 | inactive: -0.049 | inactive: 0.012 | inactive: 0.01 | inactive: -0.045 | inactive: 0.011 | inactive: -0.02 | inactive: -0.011 | inactive: -0.009 | inactive: -0.014 | inactive: -0.002 | inactive: -0.003 |
| STOML2 (UniProt Q9UJZ1) | inactive: 0.03 | inactive: 0.074 | inactive: -0.038 | inactive: 0.004 | inactive: -0.029 | inactive: 0.015 | inactive: -0.023 | inactive: -0.019 | inactive: -0.029 | inactive: 0.082 | inactive: -0.001 | inactive: 0.027 | inactive: -0.029 | inactive: 0.009 | inactive: -0.013 | inactive: -0.006 | inactive: -0.036 | inactive: -0.011 | inactive: -0.042 | inactive: 0.008 |
| TATDN3 isoform 3 (UniProt Q17R31) | inactive: -0.008 | inactive: 0.121 | inactive: 0.015 | inactive: 0.017 | inactive: 0.056 | inactive: 0.031 | inactive: -0.082 | inactive: 0.017 | inactive: -0.079 | inactive: 0.118 | inactive: 0.033 | inactive: 0.058 | inactive: 0.04 | inactive: 0.025 | inactive: 0 | inactive: 0.012 | inactive: 0.021 | inactive: -0.024 | inactive: -0.009 | inactive: 0.039 |
| SYNGR2 (UniProt O43760) | inactive: 0.034 | inactive: 0.155 | inactive: -0.085 | inactive: 0.02 | inactive: 0.013 | inactive: 0.014 | inactive: 0.04 | inactive: -0.005 | inactive: 0.034 | inactive: 0.039 | inactive: 0.016 | inactive: 0.086 | inactive: 0.106 | inactive: -0.022 | inactive: 0.018 | inactive: -0.008 | inactive: -0.023 | inactive: -0.1 | inactive: -0.035 | inactive: 0.027 |
| TACC1 isoform 2 (UniProt O75410) | inactive: -0.025 | inactive: -0.082 | inactive: -0.021 | inactive: 0.031 | inactive: 0.014 | inactive: -0.009 | inactive: -0.008 | inactive: 0.013 | inactive: -0.053 | inactive: -0.023 | inactive: 0.046 | inactive: 0.028 | inactive: -0.016 | inactive: -0.005 | inactive: 0.013 | inactive: -0.03 | inactive: 0.006 | inactive: -0.034 | inactive: -0.01 | inactive: 0.019 |
| STX8 (UniProt Q9UNK0) | inactive: 0.04 | inactive: 0.021 | inactive: -0.065 | inactive: -0.068 | inactive: 0.071 | inactive: 0.032 | inactive: -0.02 | inactive: -0.03 | inactive: -0.11 | inactive: -0.051 | inactive: 0.103 | inactive: 0.048 | inactive: 0.098 | inactive: -0.045 | inactive: 0.015 | inactive: 0.004 | inactive: -0.002 | inactive: -0.056 | inactive: -0.005 | inactive: 0.027 |
| STXBP5 (UniProt Q5T5C0) | inactive: -0.085 | active: -0.344 | inactive: 0.021 | inactive: 0.151 |  | inactive: 0.046 | inactive: 0.033 |  | inactive: 0.015 | inactive: -0.006 | inactive: -0.014 | inactive: 0.019 |  | inactive: 0.01 | inactive: -0.023 | inactive: -0.011 | inactive: -0.002 | inactive: -0.032 | inactive: 0.028 | inactive: -0.003 |
| STRBP (UniProt Q96SI9) | inactive: 0.169 | inactive: 0.166 | inactive: -0.075 | inactive: -0.178 | inactive: -0.008 |  | inactive: -0.038 | inactive: -0.067 | inactive: 0.23 |  | inactive: -0.06 | inactive: 0.04 | inactive: 0.304 | inactive: 0.079 | inactive: -0.028 | inactive: 0.351 | inactive: 0.144 | inactive: 0.034 | inactive: -0.038 | inactive: -0.123 |
| TATDN1 (UniProt Q6P1N9) | inactive: 0.048 | inactive: 0.081 | inactive: -0.008 | inactive: -0.018 | inactive: -0.069 | inactive: 0.009 | inactive: -0.014 | inactive: -0.007 | inactive: 0.02 | inactive: -0.01 | inactive: 0.076 | inactive: 0.077 | inactive: 0.05 | inactive: -0.048 | inactive: -0.016 | inactive: 0.005 | inactive: -0.033 | inactive: -0.027 | inactive: -0.027 | inactive: 0.06 |
| SVIP (UniProt Q8NHG7) | inactive: 0.124 | inactive: 0.021 | inactive: -0.009 | inactive: -0.062 | inactive: 0.062 | inactive: -0.034 | inactive: -0.067 | inactive: -0.002 |  | inactive: 0.03 |  | inactive: 0.021 | inactive: -0.003 | inactive: -0.082 | inactive: -0.004 | inactive: -0.059 | inactive: -0.008 |  | inactive: -0.039 | inactive: 0.027 |
| SWAP70 (UniProt Q9UH65) | inactive: 0.012 | inactive: -0.056 | inactive: 0.024 | inactive: 0.015 | inactive: 0.005 | inactive: -0.001 | inactive: -0.05 | inactive: 0.008 | inactive: -0.045 | inactive: 0.042 | inactive: 0.009 | inactive: -0.01 | inactive: -0.012 | inactive: 0.024 | inactive: -0.007 | inactive: -0.039 | inactive: -0.063 | inactive: -0.031 | inactive: 0.09 | inactive: -0.014 |
| STRAP isoform 2 (UniProt Q9Y3F4) | inactive: 0.078 | inactive: 0.064 | inactive: -0.023 | inactive: -0.025 | inactive: 0.002 | inactive: 0.022 | inactive: -0.016 | inactive: -0.019 | inactive: -0.011 | inactive: -0.02 | inactive: 0.041 | inactive: 0.022 | inactive: 0.006 | inactive: -0.027 | inactive: -0.012 | inactive: 0.005 | inactive: 0.022 | inactive: 0.008 | inactive: -0.005 | inactive: -0.014 |
| TARBP2 (UniProt Q15633) | inactive: 0.068 | inactive: -0.087 | inactive: 0.042 | inactive: -0.092 | inactive: -0.079 | inactive: 0.048 | inactive: -0.091 | inactive: 0 | inactive: 0.155 | inactive: 0.068 | inactive: -0.151 | inactive: -0.197 | inactive: 0.084 | inactive: 0.142 | inactive: 0.005 | inactive: 0.087 | inactive: 0.206 | inactive: -0.015 | inactive: 0.055 | inactive: 0.017 |
| STX4 (UniProt Q12846) | inactive: 0.035 | inactive: -0.051 | inactive: 0.039 | inactive: 0.019 | inactive: -0.005 | inactive: 0.01 | inactive: -0.046 | inactive: 0.024 | inactive: 0.023 | inactive: 0.086 | inactive: 0.007 | inactive: 0.016 | inactive: -0.032 | inactive: 0.026 | inactive: -0.023 | inactive: -0.114 | inactive: -0.048 | inactive: 0 | inactive: -0.016 | inactive: -0.029 |
| SYF2 (UniProt O95926) | inactive: 0.196 | inactive: 0.174 | inactive: -0.096 | inactive: 0.129 |  | inactive: 0.068 | inactive: -0.044 |  | inactive: 0.039 | inactive: 0.187 | inactive: -0.028 | inactive: -0.041 | active: 0.383 | inactive: -0.016 | inactive: -0.086 | inactive: 0.286 | inactive: 0.029 | inactive: -0.14 | inactive: -0.062 | inactive: 0.038 |

No new results follow: entries from further up.

| Target | log2 fold change [1] | log2 fold change [2] | log2 fold change [3] | log2 fold change [4] | log2 fold change [5] | log2 fold change [6] | log2 fold change [7] | log2 fold change [8] | log2 fold change [9] | log2 fold change [10] | log2 fold change [11] | log2 fold change [12] | log2 fold change [13] | log2 fold change [14] | log2 fold change [15] | log2 fold change [16] | log2 fold change [17] | log2 fold change [18] | log2 fold change [19] | log2 fold change [20] |
| --- | --- | --- | --- | --- | --- | --- | --- | --- | --- | --- | --- | --- | --- | --- | --- | --- | --- | --- | --- | --- |
| STXBP5 (UniProt Q5T5C0) | inactive: -0.085 | active: -0.344 | inactive: 0.021 | inactive: 0.151 |  | inactive: 0.046 | inactive: 0.033 |  | inactive: 0.015 | inactive: -0.006 | inactive: -0.014 | inactive: 0.019 |  | inactive: 0.01 | inactive: -0.023 | inactive: -0.011 | inactive: -0.002 | inactive: -0.032 | inactive: 0.028 | inactive: -0.003 |
| STRBP (UniProt Q96SI9) | inactive: 0.169 | inactive: 0.166 | inactive: -0.075 | inactive: -0.178 | inactive: -0.008 |  | inactive: -0.038 | inactive: -0.067 | inactive: 0.23 |  | inactive: -0.06 | inactive: 0.04 | inactive: 0.304 | inactive: 0.079 | inactive: -0.028 | inactive: 0.351 | inactive: 0.144 | inactive: 0.034 | inactive: -0.038 | inactive: -0.123 |
